Assay results from patent publication US8183416B2, “Heterocyclic amide derivatives useful as microbiocides” (Syngenta Crop Protection, Inc., priority 2005, dated 2012).
Some results were stated once for a whole list of compounds, not compound by compound.

What follows are molecules tested on Rhizoctonia solani (assay: B-15 Action against Rhizoctonia solani/rice (sheath blight) (pouch test)). Settings: rice cv. Koshihikari, 0.002% active ingredient, 10 days, brown lesions on the roots.
Assay type: in vivo

SMILES | disease incidence
O=C(Nc1cccc2c1C1CCC2C1=C(Cl)Cl)c1cccnc1Cl (racemic) [Compound 27.01] | < 50%
O=C(Nc1cccc2c1C1CCC2C1=C(F)F)c1cccnc1Cl (racemic) [Compound 27.11] | < 50%
O=C(Nc1cccc2c1C1CCC2C1=C(Br)Br)c1cccnc1Cl (racemic) [Compound 27.21] | < 50%

The molecules below were run on Erysiphe graminis (assay: B-11 Systemic action against Erysiphe graminis/barley (pouch test)). Settings: barley cv. Express, 0.002% active ingredient, inoculated one week after sowing, 6 days incubation.
Assay type: in vivo

SMILES | disease incidence
O=C(Nc1cccc2c1C1CCC2C1=C(Cl)Cl)c1cccnc1Cl (racemic) [Compound 27.01] | < 50%
O=C(Nc1cccc2c1C1CCC2C1=C(F)F)c1cccnc1Cl (racemic) [Compound 27.11] | < 50%
O=C(Nc1cccc2c1C1CCC2C1=C(Br)Br)c1cccnc1Cl (racemic) [Compound 27.21] | < 50%

These molecules were tested on Venturia inaequalis (assay: B-3 Action against Venturia inaequalis/apple (scab on apple)). Settings: apple seedlings cv. McIntosh, spray 0.02% active ingredient, inoculated one day after application.
Assay type: in vivo

SMILES | infestation
O=C(Nc1cccc2c1C1CCC2C1=C(Cl)Cl)c1cccnc1Cl (racemic) [Compound 27.01] | < 20%
O=C(Nc1cccc2c1C1CCC2C1=C(F)F)c1cccnc1Cl (racemic) [Compound 27.11] | < 20%
O=C(Nc1cccc2c1C1CCC2C1=C(Br)Br)c1cccnc1Cl (racemic) [Compound 27.21] | < 20%

What follows are molecules tested on Septoria nodorum (assay: B-16 Action against Septoria nodorum/wheat (Septoria leaf spot) (pouch test)). Settings: wheat cv. Arina, 0.002% active ingredient, systemic, assessed 8 days after inoculation.
Assay type: in vivo

SMILES | disease incidence
O=C(Nc1cccc2c1C1CCC2C1=C(Cl)Cl)c1cccnc1Cl (racemic) [Compound 27.01] | < 50%
O=C(Nc1cccc2c1C1CCC2C1=C(F)F)c1cccnc1Cl (racemic) [Compound 27.11] | < 50%
O=C(Nc1cccc2c1C1CCC2C1=C(Br)Br)c1cccnc1Cl (racemic) [Compound 27.21] | < 50%

Each molecule was assayed on Alternaria solani (assay: B-9 Action against Alternaria solani/tomato (early blight on tomatoes)). Settings: tomato cv. Roter Gnom, spray 0.02% active ingredient, inoculated two days after application, 3 days incubation.
Assay type: in vivo

SMILES | disease incidence
O=C(Nc1cccc2c1C1CCC2C1=C(Cl)Cl)c1cccnc1Cl (racemic) [Compound 27.01] | < 20%
O=C(Nc1cccc2c1C1CCC2C1=C(F)F)c1cccnc1Cl (racemic) [Compound 27.11] | < 20%
O=C(Nc1cccc2c1C1CCC2C1=C(Br)Br)c1cccnc1Cl (racemic) [Compound 27.21] | < 20%

What follows are molecules tested on Puccinia recondita (assay: B-14 Action against Puccinia recondita/wheat (brownrust) (pouch test)). Settings: wheat cv. Arina, 0.002% active ingredient, systemic, assessed 10 days after inoculation.
Assay type: in vivo

SMILES | disease incidence
O=C(Nc1cccc2c1C1CCC2C1=C(Cl)Cl)c1cccnc1Cl (racemic) [Compound 27.01] | < 50%
O=C(Nc1cccc2c1C1CCC2C1=C(F)F)c1cccnc1Cl (racemic) [Compound 27.11] | < 50%
O=C(Nc1cccc2c1C1CCC2C1=C(Br)Br)c1cccnc1Cl (racemic) [Compound 27.21] | < 50%

What follows are molecules tested on Fusarium culmorum (assay: not given). Settings: in vivo.
Assay type: in vivo

SMILES | disease incidence
O=C(Nc1cccc2c1C1CCC2C1=C(Cl)Cl)c1cccnc1Cl (racemic) [Compound 27.01] | < 50%
O=C(Nc1cccc2c1C1CCC2C1=C(F)F)c1cccnc1Cl (racemic) [Compound 27.11] | < 50%
O=C(Nc1cccc2c1C1CCC2C1=C(Br)Br)c1cccnc1Cl (racemic) [Compound 27.21] | < 50%

The molecules below were run on Helminthosporium teres (assay: B-8 Action against Helminthosporium teres/barley (net blotch on barley)). Settings: barley cv. Regina, spray 0.02% active ingredient, inoculated two days after application, 4 days incubation.
Assay type: in vivo

SMILES | disease incidence
O=C(Nc1cccc2c1C1CCC2C1=C(Cl)Cl)c1cccnc1Cl (racemic) [Compound 27.01] | < 20%
O=C(Nc1cccc2c1C1CCC2C1=C(F)F)c1cccnc1Cl (racemic) [Compound 27.11] | < 20%
O=C(Nc1cccc2c1C1CCC2C1=C(Br)Br)c1cccnc1Cl (racemic) [Compound 27.21] | < 20%

The molecules below were run on Erysiphe graminis (assay: B-4 Action against Erysiphe graminis/barley (powdery mildew on barley)). Settings: barley cv. Regina, spray 0.02% active ingredient, inoculated one day after application, 6 days incubation.
Assay type: in vivo

SMILES | infestation
O=C(Nc1cccc2c1C1CCC2C1=C(Cl)Cl)c1cccnc1Cl (racemic) [Compound 27.01] | < 20%
O=C(Nc1cccc2c1C1CCC2C1=C(F)F)c1cccnc1Cl (racemic) [Compound 27.11] | < 20%
O=C(Nc1cccc2c1C1CCC2C1=C(Br)Br)c1cccnc1Cl (racemic) [Compound 27.21] | < 20%

The molecules below were run on Puccinia recondita (assay: B-1 Action against Puccinia recondita/wheat (brownrust on wheat)). Settings: wheat cv. Arina, spray 0.02% active ingredient, inoculated one day after application, assessed 10 days after inoculation.
Assay type: in vivo

SMILES | infestation
O=C(Nc1cccc2c1C1CCC2C1=C(Cl)Cl)c1cccnc1Cl (racemic) [Compound 27.01] | < 20%
O=C(Nc1cccc2c1C1CCC2C1=C(F)F)c1cccnc1Cl (racemic) [Compound 27.11] | < 20%
O=C(Nc1cccc2c1C1CCC2C1=C(Br)Br)c1cccnc1Cl (racemic) [Compound 27.21] | < 20%

Each molecule was assayed on Podosphaera leucotricha (assay: B-2 Action against Podosphaera leucotricha/apple (powdery mildew on apple)). Settings: apple seedlings cv. McIntosh, spray 0.02% active ingredient, inoculated one day after application, 12 days incubation.
Assay type: in vivo

SMILES | infestation
O=C(Nc1cccc2c1C1CCC2C1=C(Cl)Cl)c1cccnc1Cl (racemic) [Compound 27.01] | < 20%
O=C(Nc1cccc2c1C1CCC2C1=C(F)F)c1cccnc1Cl (racemic) [Compound 27.11] | < 20%
O=C(Nc1cccc2c1C1CCC2C1=C(Br)Br)c1cccnc1Cl (racemic) [Compound 27.21] | < 20%

The molecules below were run on Uncinula necator (assay: B-10 Action against Uncinula necator/grape (powdery mildew on grapes)). Settings: grape seedlings cv. Gutedel, spray 0.02% active ingredient, inoculated one day after application, 7 days incubation.
Assay type: in vivo

SMILES | disease incidence
O=C(Nc1cccc2c1C1CCC2C1=C(Cl)Cl)c1cccnc1Cl (racemic) [Compound 27.01] | < 20%
O=C(Nc1cccc2c1C1CCC2C1=C(F)F)c1cccnc1Cl (racemic) [Compound 27.11] | < 20%
O=C(Nc1cccc2c1C1CCC2C1=C(Br)Br)c1cccnc1Cl (racemic) [Compound 27.21] | < 20%

Each molecule was assayed on Botrytis cinerea (assay: B-5 Action against Botrytis cinerea/grape (Botrytis on grapes)). Settings: grape seedlings cv. Gutedel, spray 0.02% active ingredient, inoculated two days after application, 4 days incubation.
Assay type: in vivo

SMILES | disease incidence
O=C(Nc1cccc2c1C1CCC2C1=C(Cl)Cl)c1cccnc1Cl (racemic) [Compound 27.01] | < 50%
O=C(Nc1cccc2c1C1CCC2C1=C(F)F)c1cccnc1Cl (racemic) [Compound 27.11] | < 50%
O=C(Nc1cccc2c1C1CCC2C1=C(Br)Br)c1cccnc1Cl (racemic) [Compound 27.21] | < 50%

These molecules were tested on Gaeumannomyces graminis (assay: B-13 Action against Gaeumannomyces graminis/wheat (take-all) (pouch test)). Settings: wheat cv. Orestis, 0.002% active ingredient, 14 days, degree of root browning.
Assay type: in vivo

SMILES | disease incidence
O=C(Nc1cccc2c1C1CCC2C1=C(Cl)Cl)c1cccnc1Cl (racemic) [Compound 27.01] | < 50%
O=C(Nc1cccc2c1C1CCC2C1=C(F)F)c1cccnc1Cl (racemic) [Compound 27.11] | < 50%
O=C(Nc1cccc2c1C1CCC2C1=C(Br)Br)c1cccnc1Cl (racemic) [Compound 27.21] | < 50%

These molecules were tested on Septoria nodorum (assay: B-7 Action against Septoria nodorum/wheat (Septoria leaf spot on wheat)). Settings: wheat cv. Arina, spray 0.02% active ingredient, inoculated one day after application, assessed 11 days after inoculation.
Assay type: in vivo

SMILES | disease incidence
O=C(Nc1cccc2c1C1CCC2C1=C(Cl)Cl)c1cccnc1Cl (racemic) [Compound 27.01] | < 50%
O=C(Nc1cccc2c1C1CCC2C1=C(F)F)c1cccnc1Cl (racemic) [Compound 27.11] | < 50%
O=C(Nc1cccc2c1C1CCC2C1=C(Br)Br)c1cccnc1Cl (racemic) [Compound 27.21] | < 50%

These molecules were tested on Septoria tritici (assay: B-17 Action against Septoria tritici/wheat (Septoria leaf spot on wheat)). Settings: wheat cv. Riband, spray 0.02% active ingredient, inoculated one day after application, assessed 18 days after inoculation.
Assay type: in vivo

SMILES | disease incidence
O=C(Nc1cccc2c1C1CCC2C1=C(Cl)Cl)c1cccnc1Cl (racemic) [Compound 27.01] | < 20%
O=C(Nc1cccc2c1C1CCC2C1=C(F)F)c1cccnc1Cl (racemic) [Compound 27.11] | < 20%
O=C(Nc1cccc2c1C1CCC2C1=C(Br)Br)c1cccnc1Cl (racemic) [Compound 27.21] | < 20%

Each molecule was assayed on Botrytis cinerea (assay: B-6 Action against Botrytis cinerea/tomato (Botrytis on tomatoes)). Settings: tomato cv. Roter Gnom, spray 0.02% active ingredient, inoculated two days after application, 4 days incubation.
Assay type: in vivo

SMILES | disease incidence
O=C(Nc1cccc2c1C1CCC2C1=C(Cl)Cl)c1cccnc1Cl (racemic) [Compound 27.01] | < 50%
O=C(Nc1cccc2c1C1CCC2C1=C(F)F)c1cccnc1Cl (racemic) [Compound 27.11] | < 50%
O=C(Nc1cccc2c1C1CCC2C1=C(Br)Br)c1cccnc1Cl (racemic) [Compound 27.21] | < 50%
